Data reported in PubChem BioAssay AID485314 (National Center for Advancing Translational Sciences (NCATS), 2010).
The campaign covered roughly 340,000 compounds. About 4,500 (1.3%) were called active. The inconclusive results got no clear call from the source; some entries with a clear call stand among them for comparison. Calls come from the whole dose curve; as a rule, active = well fitted inhibition curve with a large enough effect; inconclusive = small, poorly fitted or top-dose-only effect, or another doubt; inactive = no such curve, though single readings can be large or run the other way. Potencies beside an inconclusive call are fits to weak or partial responses and may not hold up.

molecular target: DNA polymerase beta (Homo sapiens) (UniProt P06746); assay: qHTS Assay for Inhibitors of DNA Polymerase Beta; details: Pol beta primer extension/strand displacement, fluorescence kinetic; activity change, negative = inhibition: at 114 µM (top of the series)
Procedure, shortened: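 10 nM enzyme + cpd, 15 min RT; start with substrate 50 nM final; read 0 min and after 10 min RT. Corrected, normalized data; 4-parameter Hill curve fit.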
% is set by controls: 0 for no effect and ±100 for the full control effect; potency is the fitted concentration of half-maximal effect.

`O=C(CCN1CCN(Cc2ccccc2)CC1)Nc1cccc(Br)c1` was tested. Which Potency did it give?
The Potency was inconclusive: 1.12 µM [inhibitor, full curve, poor fit].

For `CN=c1scc(-c2ccccc2F)n1/N=C/c1ccc(O)c(O)c1O`, which Potency is on record?
The Potency was active: 1.41 µM.

Which activity change, negative = inhibition does the source give for `C=CCNC(=O)CSc1nc2scc(-c3ccco3)c2c(=O)n1CC=C` here?
Its activity change, negative = inhibition is inconclusive: -45.3% [inhibitor].

For `COc1cccc(NC(=O)c2sc(Cl)nc2C)c1`, which Potency is on record?
The Potency was inconclusive: 89.1 µM [inhibitor, single point].

How did the Potency turn out when `CCOc1ccc(N=C(NN)c2ccc3ccccc3n2)cc1` was run?
The Potency was inconclusive: 89.1 µM [inhibitor, single point].

`COc1cc(Cl)c(C)cc1Nc1nc2ccccc2nc1NS(=O)(=O)c1ccccc1` was tested. Which Potency did it give?
The Potency was inconclusive: 2.51 µM [inhibitor, full curve, poor fit].

`O=c1cc2nc(-c3cccs3)nc(SCCOc3ccc(Cl)cc3)n2[nH]1` was tested. Which Potency did it give?
Its Potency is inconclusive: 39.8 µM [inhibitor, partial curve].

How did the Potency turn out when `O=C(/C=C/c1ccco1)NC(=S)Nc1cccc(-c2nc3ccccc3o2)c1` was run?
The Potency was active: 28.2 µM.

With `Cc1ccccc1OCC(=O)N/N=C/c1ccccn1` as the compound, how does the Potency read?
Its Potency is inconclusive: 35.5 µM [inhibitor, partial curve].

Which Potency does the source give for `CN(C)CCN=c1cc(-c2ccccc2)oc2ccc(Cl)cc12` here?
The Potency was inconclusive: 89.1 µM [inhibitor, single point].

How did the Potency turn out when `CC(=O)c1cccc(N/C=C\c2nnnn2-c2ccc(F)cc2)c1` was run?
The Potency was inconclusive: 14.1 µM [inhibitor, full curve, poor fit].

Which Potency does the source give for `O=C1CC(c2ccccc2)CC(O)=C1C=Nc1ccccc1O` (configuration not stated) here?
The Potency was inconclusive: 39.8 µM [inhibitor, partial curve].

Which Potency does the source give for `O=C(O)c1cc(Cl)c2c(c1)[C@@H]1C=CC[C@@H]1[C@H](c1ccc(S(=O)(=O)N3CCOCC3)cc1)N2` here?
The Potency was active: 31.6 µM.

With `Cc1ccc(C)c(/C=C(\C(=O)O)c2ccc(S(=O)(=O)N3CCCCC3)s2)c1` as the compound, how does the Potency read?
The Potency was active: 22.4 µM.

Which activity change, negative = inhibition does the source give for `O=C(Nc1ccc2c(c1)OCO2)c1n[nH]c(=O)c2ccccc12` here?
The activity change, negative = inhibition was inconclusive: -58.8% [inhibitor].

For `Cc1ccc(O)c(NC(=O)c2noc3c2CCCCC3)c1`, which Potency is on record?
Its Potency is inconclusive: 56.2 µM [inhibitor, partial curve, poor fit].

`Cc1c(C(=O)O)cccc1-n1c(C)cc(/C=C(/C#N)C(=O)NCc2ccccc2)c1C` was tested. Which Potency did it give?
Its Potency is inconclusive: 17.8 µM [inhibitor, full curve, poor fit].

For `COc1cccc(N2CCN(CC(=O)NC(=O)NCc3ccco3)CC2)c1`, which Potency is on record?
The Potency was active: 7.94 µM.

For `O=C(CCS(=O)(=O)c1ccc(Br)cc1)NCCc1ccccc1`, which Potency is on record?
The Potency was inconclusive: 28.2 µM [inhibitor, full curve].

`O=C(NN1C(=O)c2ccccc2NC1c1ccc([N+](=O)[O-])o1)c1ccc([N+](=O)[O-])cc1` (configuration not stated) was tested. Which Potency did it give?
The Potency was inconclusive: 79.4 µM [inhibitor, single point].

For `CC(C)n1cc(/C=N/Nc2ccc(Cl)c(C(=O)O)c2)c2ccccc21`, which Potency is on record?
Its Potency is active: 31.6 µM.

With `COc1ccc(-c2oc3ncnc(NCCCN4CCOCC4)c3c2-c2ccc(OC)cc2)cc1` as the compound, how does the Potency read?
The Potency was inconclusive: 79.4 µM [inhibitor, single point].

For `Cc1nnsc1C(=O)N1CCCC(Nc2ccc(F)c(F)c2)C1` (configuration not stated), which activity change, negative = inhibition is on record?
The activity change, negative = inhibition was inconclusive: -41.7% [inhibitor].

For `COC(=O)c1cccc(NC(=O)CSc2nc(O)c(-c3ccccc3)c(=O)[nH]2)c1`, which Potency is on record?
Its Potency is inconclusive: 28.2 µM [inhibitor, full curve, poor fit].

Which Potency does the source give for `CCCN(CCC)C(=O)Cn1c(=O)n(-c2ccc(C)cc2)c(=O)c2ccc(C(=O)NCc3ccccc3Cl)cc21` here?
The Potency was inconclusive: 89.1 µM [inhibitor, single point].

`CCn1c(SCC(=O)O)nc2sc3c(c2c1=O)CCC3` was tested. Which Potency did it give?
Its Potency is active: 14.1 µM.

`Cc1oc2c(c(C)cc3oc(=O)c(CC(=O)N[C@@H](CC(C)C)C(=O)O)c(C)c32)c1C` was tested. Which Potency did it give?
Its Potency is inconclusive: 50.1 µM [inhibitor, partial curve, poor fit].

How did the Potency turn out when `COc1ccc(C)c2sc(N(Cc3cccnc3)C(=O)COc3ccccc3)nc12` was run?
The Potency was inconclusive: 89.1 µM [inhibitor, single point].

How did the “activity change, negative = inhibition” value turn out when `Cn1nc(-c2ccccc2)c(-c2ccccc2)c(C(=O)Nc2ccc(S(N)(=O)=O)cc2)c1=O` was run?
The value was inactive: -0.58%.

With `CSCC[C@H](NC(=O)N1CCn2c1nc1ccccc12)C(=O)NCc1ccco1` as the compound, how does the activity change, negative = inhibition read?
The activity change, negative = inhibition was inconclusive: -47.7% [inhibitor].

`CCOc1ccc(Nc2c(S(=O)(=O)c3ccc(C)cc3)cnc3ccc(OC)cc23)cc1` was tested. Which Potency did it give?
The Potency was inconclusive: 89.1 µM [inhibitor, single point].

With `CC(NC(=O)C1CCN(c2nnc(-n3cccc3)s2)CC1)C12CC3CC(CC(C3)C1)C2` (configuration not stated) as the compound, how does the Potency read?
The Potency was inconclusive: 89.1 µM [inhibitor, single point].

Which “activity change, negative = inhibition” value does the source give for `COc1ccc(Cn2c(C(=O)O)c(CNC3CCC(C)CC3)c3ccc(C)cc32)cc1` (configuration not stated) here?
Its value is inactive: -0.965%.

Which Potency does the source give for `O=C(OCC(=O)N1CCc2ccccc2C1)c1cccs1` here?
Its Potency is inconclusive: 89.1 µM [inhibitor, single point].

Which activity change, negative = inhibition does the source give for `CC(=O)N1CCc2cc(Br)cc(S(=O)(=O)N3CCC(C(=O)O)CC3)c21` here?
The activity change, negative = inhibition was inconclusive: -91.4% [inhibitor].

Which Potency does the source give for `O=C(O)c1ccc(CS(=O)(=O)c2cccc(C(F)(F)F)c2)o1` here?
Its Potency is inconclusive: 50.1 µM [inhibitor, single point].

How did the “activity change, negative = inhibition” value turn out when `COC(=O)c1ccc(NC(=O)N2CCc3c([nH]c4ccccc34)C2c2ccc(C)cc2)cc1` (configuration not stated) was run?
Its value is inactive: 9.91%.

Which Potency does the source give for `COc1ccc(Cc2nnc(NC(=O)CSc3ccccc3)s2)cc1` here?
Its Potency is inconclusive: 22.4 µM [inhibitor, full curve].

For `O=C(COc1ccc(Cl)cc1)N/N=C/CCc1ccccc1`, which Potency is on record?
Its Potency is inconclusive: 7.94 µM [inhibitor, full curve, poor fit].

With `O=C(NCC(c1cccnc1)N1CCOCC1)C(=O)Nc1cccc(Cl)c1` (configuration not stated) as the compound, how does the Potency read?
The Potency was inconclusive: 89.1 µM [inhibitor, single point].

For `CC(C)c1ccc(NC(=O)c2ccccc2NC(=O)C2CC=CCC2C(=O)O)cc1` (configuration not stated), which activity change, negative = inhibition is on record?
The activity change, negative = inhibition was inconclusive: -121% [inhibitor].

For `Cc1ccc(CCNC(=O)C2CCN(S(=O)(=O)c3ccc4c(c3)NC(=O)C(C)S4)CC2)cc1` (configuration not stated), which Potency is on record?
The Potency was inconclusive: 0.1 µM [inhibitor, full curve, poor fit].

How did the Potency turn out when `O=S(=O)(NCCCN1CCOCC1)c1ccc2ccccc2c1` was run?
The Potency was inconclusive: 1.58 µM [inhibitor, partial curve, poor fit].

With `CCSc1nc2sc3c(c2c(=O)n1CC)CCC3` as the compound, how does the Potency read?
The Potency was inconclusive: 39.8 µM [inhibitor, partial curve, poor fit].

How did the Potency turn out when `CCc1ccccc1NC(=O)CSc1nc2c(oc3ccccc32)c(=O)n1-c1ccccc1` was run?
The Potency was inconclusive: 2 µM [inhibitor, full curve, poor fit].

`Cc1c(C(=O)NC(C)CCc2ccccc2)cccc1[N+](=O)[O-]` (configuration not stated) was tested. Which Potency did it give?
The Potency was inconclusive: 28.2 µM [inhibitor, partial curve].

`O=C(NCc1ccccc1Cl)C(=O)NCC(c1ccco1)S(=O)(=O)c1cccs1` (configuration not stated) was tested. Which “activity change, negative = inhibition” value did it give?
The value was inactive: -22.4%.

Which Potency does the source give for `CCC(c1nnnn1CCc1ccccc1)N1CCN(c2ccc(OC)cc2)CC1` (configuration not stated) here?
Its Potency is inconclusive: 28.2 µM [inhibitor, single point].

Which “activity change, negative = inhibition” value does the source give for `COc1ccc(Cn2c(=O)c3oc4ccccc4c3n(CC(=O)Nc3cc(C)cc(C)c3)c2=O)cc1` here?
The value was inactive: -1.42%.

Which Potency does the source give for `CC1(OC(=O)C2CCCC2)C(=O)C=C2C=C(c3ccsc3)N(Cc3ccco3)C=C2C1=O` (configuration not stated) here?
Its Potency is inconclusive: 79.4 µM [inhibitor, partial curve].

With `S=c1[nH]nc(Nc2ccccc2Cl)s1` as the compound, how does the “activity change, negative = inhibition” value read?
The value was inactive: -20%.

`Cc1nnc(N2CCN(c3ccccc3)CC2)c2c1nnn2Cc1ccc(F)cc1` was tested. Which “activity change, negative = inhibition” value did it give?
Its value is inactive: -1.61%.

For `O=C(NNC1=C(C(=O)C(F)(F)F)CCC1)c1ccc(Cl)cc1`, which Potency is on record?
Its Potency is inconclusive: 2.51 µM [inhibitor, single point].

Which Potency does the source give for `CCOC(=O)c1cccc(NC(=O)Cc2ccc(NC(=O)N3CCCCc4ccccc43)cc2)c1` here?
The Potency was inconclusive: 89.1 µM [inhibitor, single point].

`CC(=O)NC1C(OCc2cccc(Br)c2)OC(COC(C)=O)C(OC(C)=O)C1OC(C)=O` (configuration not stated) was tested. Which Potency did it give?
Its Potency is inconclusive: 44.7 µM [inhibitor, partial curve].

With `O=C1CC(c2ccccc2)C(C(=O)Nc2ccccc2F)N1` (configuration not stated) as the compound, how does the “activity change, negative = inhibition” value read?
The value was inactive: 8.78%.

With `S=c1[nH]c2ccc(Cl)cc2[nH]1` as the compound, how does the Potency read?
Its Potency is inconclusive: 3.98 µM [inhibitor, single point].

With `O=C1/C(=C/c2ccco2)SC(=S)N1CC1CCCO1` (configuration not stated) as the compound, how does the Potency read?
Its Potency is active: 12.6 µM.

With `C=CCC1=C/C(=C\c2c(N)n3nc(CC(=O)N4CCOCC4)sc3nc2=O)C=C(OC)C1=O` as the compound, how does the activity change, negative = inhibition read?
The activity change, negative = inhibition was inconclusive: -46% [inhibitor].

For `COc1ccccc1N1CCN(C(=O)c2ccc3c(c2)N(Cc2ccccc2)C(=O)c2ccccc2S3(=O)=O)CC1`, which Potency is on record?
Its Potency is inconclusive: 39.8 µM [inhibitor, single point].

`Cc1cccc(NC(=O)Cn2nc(C)c3nn(-c4ccc(Cl)cc4)c(C)c3c2=O)c1C` was tested. Which “activity change, negative = inhibition” value did it give?
The value was inactive: -26.4%.

How did the Potency turn out when `COc1cccc(/C=C2\SC(=S)NC2=O)c1OS(=O)(=O)c1ccc(NC(C)=O)cc1` was run?
Its Potency is inconclusive: 35.5 µM [inhibitor, single point].

Which Potency does the source give for `O=C(CNC(=O)c1ccccc1)OCC(=O)c1cccs1` here?
The Potency was inconclusive: 89.1 µM [inhibitor, partial curve].

With `O=c1oc2cc(O)ccc2c2ccccc12` as the compound, how does the “activity change, negative = inhibition” value read?
The value was inactive: -0.464%.

With `COc1ccc(C(=O)Nc2cccc(S(C)(=O)=O)c2)cc1OC` as the compound, how does the “activity change, negative = inhibition” value read?
Its value is inactive: 3.24%.

Which Potency does the source give for `COc1ccc(N2CSC3=C(C#N)C(c4cccs4)CC(=O)N3C2)cc1` (configuration not stated) here?
Its Potency is active: 28.2 µM.

For `COc1ccccc1N(CC(=O)NCCSCc1cccc(C)c1)S(=O)(=O)c1ccccc1`, which “activity change, negative = inhibition” value is on record?
Its value is inactive: -23.5%.
